Results on 1 molecule are retold here after patent US20030203890A1 (priority 2001, published 2003).

Amino acid sequences for entries named in this document (tags omitted).
UniProt P62942, whole entry: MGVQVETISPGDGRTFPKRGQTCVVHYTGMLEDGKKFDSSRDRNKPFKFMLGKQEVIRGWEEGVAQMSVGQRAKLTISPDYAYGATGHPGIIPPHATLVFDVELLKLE

The target of this assay is FKBP12 (Homo sapiens, UniProt P62942). The assay can be described thus: K1 test procedure: inhibition of peptidyl-prolyl isomerase (rotamase) activity of FKBP12, chymotrypsin-coupled assay. In kind it is biochemical. The following applies: read-out: K1, apparent Ki, Table XLIII, Formulas XXV to XXIX.

The match of structure and compound is tentative.

Take `O=C(C(=O)N1CCC[C@H]1C(=O)OCCC(c1ccccc1)c1ccccc1)C1CCCCC1`: the Ki amounted to 20 nM.
